PubChem BioAssay AID1259291 | Sanger Institute – 2017
Aim: 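Find kinase and colorectal-cancer-mutated genes whose loss kills HT29 cells or aids anchor drugs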 (primary screen). System: HT29 human colorectal cancer cells. Reagents: siRNA pool against human genes. Conditions: anchor drugs added a day after transfection: BYL719 at 1 µM, cetuximab at 5 µg/ml or trametinib at 10 nM, or DMSO vehicle alone. Measured: 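Replicate-averaged viability relative to non-targeting pool, robust z-score based on control wells, plus per-drug synergy score for 1 µM BYL719, 5 µg/ml cetuximab and 10 nM trametinib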. Reading the numbers: robust z-score, knock-down alone and viability, knock-down alone: higher = more viable cells; synergy score with BYL719 and synergy score with cetuximab and synergy score with trametinib: higher = stronger synergistic killing with drug. Call rule: 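a knock-down alone scoring under -3 on robust z-score is called essential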. Meaning of the calls: active = essential (knock-down alone); inactive = no change alone.
Here is one part, drawn at random, of 794 reagents. 15 of all reagents (1.9%) count as active. 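Calls rest on knock-down alone; drug synergy scores do not affect them; drugs added a day post-transfection, DMSO vehicle as comparison.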 Unmarked entries are inactive. No viability above 1 is reported: the scale is capped. Not stated in the record: the amount of reagent, the time to read-out.

gene symbol	robust z-score, knock-down alone	viability, knock-down alone (fraction of control)	synergy score with BYL719	synergy score with cetuximab	synergy score with trametinib
CDC7	0.552	1	0.0353	0.158	0.115
ATM	-2.47	0.813	-0.0316	-0.0727	-0.0766
EPHA3	-1.21	0.891	-0.0131	0.0964	0.0144
RFK	0.552	1	-0.0125	0	-0.039
FN1	0.552	1	-0.158	0	0.0299
BRSK2	0.552	1	0.041	0	-0.0878
NEK1	0.552	1	-0.0462	0.017	0.165
NR2F2	0.552	1	-0.000778	0.0177	0.135
CSNK1E	-0.812	0.915	0.092	-0.0113	0.0216
RIOK1	0.552	1	-0.0275	0.154	0.115
MAP3K14	0.552	1	-0.00991	0.0503	-0.103
MED24	0.552	1	0.0359	0.00476	-0.0653
NME6	0.552	1	0.0875	0	0.0653
ADGRL2	-0.0259	0.964	-0.0623	-0.0115	-0.0322
RPS6KA6	-0.771	0.918	-0.127	-0.0484	0.103
EIF2AK4	-0.516	0.934	-0.054	0.00377	-0.00358
BMPR2	0.219	0.979	-0.0166	0.0126	0.0168
SGK2	0.452	0.994	0.183	0.0531	0.0623
HCK	0.552	1	-0.0603	0	0.0467
DLG1	0.552	1	-0.0177	0.0645	-0.0649
PRKY	0.255	0.982	0.147	0.139	0.00732
SNRK	0.552	1	-0.148	0	0.0412
TYK2	0.552	1	-0.0764	0	0.00998
MAP3K3	0.552	1	-0.142	0	0.0857
RPS6KA3	0.552	1	-0.119	0.0433	-0.00379
CDK6	0.552	1	0.0422	0	0.114
TAF1	0.552	1	-0.0545	0	0.206
PHKA1	0.552	1	-0.00153	0.0794	-0.0415
PIM3	-0.83	0.914	-0.154	-0.0774	0.023
PIP5K1B	0.552	1	0.00451	0.0389	0.00887
CDC42BPB	-0.284	0.948	-0.0794	-0.0333	-0.0225
MAP3K21	0.552	1	-0.0236	0	-0.0285

Continued, starting with the last 6 of the part before.
gene symbol	robust z-score, knock-down alone	viability, knock-down alone (fraction of control)	synergy score with BYL719	synergy score with cetuximab	synergy score with trametinib
TAF1	0.552	1	-0.0545	0	0.206
PHKA1	0.552	1	-0.00153	0.0794	-0.0415
PIM3	-0.83	0.914	-0.154	-0.0774	0.023
PIP5K1B	0.552	1	0.00451	0.0389	0.00887
CDC42BPB	-0.284	0.948	-0.0794	-0.0333	-0.0225
MAP3K21	0.552	1	-0.0236	0	-0.0285
DYRK3	0.552	1	-0.0254	0	0.0201
CDKL1	0.552	1	-0.0449	0	0.12
ROR1	0.552	1	-0.139	0	0.0249
ACVR1B	0.0252	0.967	-0.0154	0.0413	0.0822
PHKG1	0.334	0.986	0.0373	0.0165	0.2
KSR1	-0.38	0.942	0.106	0.0621	0.115
KCNH8	0.0587	0.969	0.0339	-0.0307	0.198
DNMT3A	0.552	1	0.0116	0.0939	-0.000776
CDK5	0.552	1	0.0541	0.0449	0.0853
NME4	-0.701	0.922	0.0797	-0.0527	-0.0514
PRKCSH	0.552	1	-0.000369	0	-0.0647
APC	0.552	1	-0.105	0	0.198
EPHA4	0.121	0.973	0.044	-0.0268	-0.0413
CAMK4	0.552	1	-0.00342	0.0239	-0.116
BRAF	-1.07	0.899	0.0228	-0.0855	0.164
WNK1	0.552	1	-0.158	0	0.0546
HK3	0.552	1	-0.133	0.0543	-0.00904
HIPK1	0.552	1	-0.0334	0	-0.0864
